Primary screen of a compound library

Amino acid sequences for entries named in this document (tags omitted). Residues count along the entry.
UniProt P9WNZ1, whole entry: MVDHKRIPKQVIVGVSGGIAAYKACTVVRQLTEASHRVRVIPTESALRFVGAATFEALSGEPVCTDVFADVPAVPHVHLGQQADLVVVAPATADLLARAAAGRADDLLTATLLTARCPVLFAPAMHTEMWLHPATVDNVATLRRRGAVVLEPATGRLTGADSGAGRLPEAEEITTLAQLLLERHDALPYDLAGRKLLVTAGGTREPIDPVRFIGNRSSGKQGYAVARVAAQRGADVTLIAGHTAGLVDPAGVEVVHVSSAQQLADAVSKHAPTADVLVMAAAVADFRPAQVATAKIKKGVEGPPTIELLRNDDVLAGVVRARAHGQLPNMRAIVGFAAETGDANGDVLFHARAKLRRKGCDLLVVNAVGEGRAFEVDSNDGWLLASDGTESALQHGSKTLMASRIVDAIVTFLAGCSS
UniProt Q4DA54, 1-478: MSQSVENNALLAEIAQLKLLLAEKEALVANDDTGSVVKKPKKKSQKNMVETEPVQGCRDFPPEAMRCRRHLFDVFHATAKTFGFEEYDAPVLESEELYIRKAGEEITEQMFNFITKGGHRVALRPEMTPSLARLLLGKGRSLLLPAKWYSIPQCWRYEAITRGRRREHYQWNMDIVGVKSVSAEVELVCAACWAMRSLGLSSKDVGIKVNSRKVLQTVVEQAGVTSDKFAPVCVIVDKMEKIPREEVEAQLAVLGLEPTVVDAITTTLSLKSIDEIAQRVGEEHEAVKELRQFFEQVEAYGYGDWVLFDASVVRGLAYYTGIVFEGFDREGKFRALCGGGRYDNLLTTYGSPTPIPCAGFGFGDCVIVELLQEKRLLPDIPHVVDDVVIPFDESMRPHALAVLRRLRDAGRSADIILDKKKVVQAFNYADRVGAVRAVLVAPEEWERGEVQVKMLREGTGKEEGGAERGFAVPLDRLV

Each number is a percent effect as filed. The controls that fix the scale are not given in the record; negative values are as filed. This is an unselected part of the compounds tested. Two or more numbers in one place are separate tests of the same structure; such repeats can differ widely. A dash means the value is not listed here; it may have been measured.

CoaBC: 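Coenzyme A biosynthesis protein CoaBC, Mycobacterium tuberculosis (UniProt P9WNZ1). Enzyme assay of CoaBC with a phosphate dye (Biomol Green) read at 650 nm. Tested at 30 µM. Higher reads as stronger inhibition, judged from the few compounds that gave an IC50. Most strong results did not repeat in a second test. Of about 67,000 compounds tested this way, about 40 (0.06%) reached 50% or more in at least one test.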
TcHisRS: 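Histidine-tRNA ligase, Trypanosoma cruzi CL Brener (UniProt Q4DA54). Enzyme assay of histidyl-tRNA synthetase; the read-out is not stated. Concentration: 30 µM. Higher reads as stronger inhibition (inferred: compounds with an IC50 in retests scored well above the rest). Size under these conditions: about 69,000 compounds, about 31 of them at 50% or above in at least one test.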

- CCc1nnc2n1CCN(C(=O)Cc1csc(-c3ccco3)n1)C2 : CoaBC: 0.5141%; TcHisRS: 2.256%
- COc1ccc2c(=O)n(CC3CCNC3)ccc2c1OC (stereo unspecified) : CoaBC: 6.653%; TcHisRS: 0%
- CC(C)CNC(=O)N1C[C@H]2CC[C@@]3(N=C(c4ccccc4)NC3=O)[C@H]2C1 : CoaBC: 4.56%; TcHisRS: 6.863%
- NC(=O)c1ccc(CN2CCC(N3CCCCC3)CC2)cc1 : CoaBC: 4.061%; TcHisRS: 1.345%
- CC(NC(=O)Nc1cccnc1N1CCCC1)c1nncn1C (stereo unspecified) : CoaBC: 2.491%; TcHisRS: -5.263%
- O=C1OCCN1CC(=O)N1C[C@H]2CC[C@@H]1CN(C(=O)c1ccccc1)C2 : CoaBC: -11.02%; TcHisRS: 3.061%
- CCOC(=O)CN1CCC(NC(=O)OC(C)(C)C)CC1 : CoaBC: -6.263%; TcHisRS: 6.122%
- COc1cccc(CN2CCC(c3nccn3C(C)C)CC2)c1 : CoaBC: 6.364%; TcHisRS: 0.8368%
- Cc1nc(C2CCCN(C(=O)c3cnc(C)s3)C2)no1 (stereo unspecified) : CoaBC: -4.487%; TcHisRS: 2.956%
- O=C(Cn1nc2c(cc1=O)CSCC2)N[C@@H](Cc1ccccc1)C(=O)O : CoaBC: 1.09%; TcHisRS: 1.98%
- O=C(c1ccc(Cn2cc(Br)cn2)cc1)N1CCOCC1 : CoaBC: 6.11%; TcHisRS: 5.82%
- CCCNC(=O)C1CCCN(Cc2ccc(-n3cncn3)c(C)c2)C1 (stereo unspecified) : CoaBC: -3.212%; TcHisRS: 0.5236%
- CCN(Cc1ccccc1Cl)Cn1nc(C)c2c(C)onc2c1=O : CoaBC: 2.857%; TcHisRS: 3.725%
- CCc1nccn1C1CCCN(C(=O)Cc2ccc(OC)c(F)c2)C1 (stereo unspecified) : CoaBC: 4.302%; TcHisRS: 3.396%
- Cc1cc(NC(=O)CCN2CCCCC2Cn2cccn2)no1 (stereo unspecified) : CoaBC: 10.56%; TcHisRS: -0.8596%
- COc1c(CNCc2ccnc(N3CCCCC3)c2)c(C)nn1C : CoaBC: -2.417%; TcHisRS: 5.07%
- CCC1=N[C@@]2(CC[C@@H]3CN(S(C)(=O)=O)C[C@@H]32)C(=O)N1CC(C)C : CoaBC: -1.474%; TcHisRS: 7.527%
- CC1CN(Cc2noc(C3CC3)n2)CCN1Cc1noc(C2CC2)n1 (stereo unspecified) : CoaBC: 2.1%; TcHisRS: 1.714%
- COC[C@@]12CCC[C@@H]1CN(C(=O)COC1CCCC1)C2 : CoaBC: 3.03%; TcHisRS: 0.5587%
- CNC(=O)CN1CCC(OCc2ccc(Cl)c(Cl)c2)CC1 : CoaBC: -3.155%; TcHisRS: 7.921%
- O=C(CN1C[C@H]2CC[C@@H]1CN(Cc1ccccn1)C2)NCc1cccs1 : CoaBC: 5.535%; TcHisRS: -14.94%
- CC(C(=O)NCc1ccnc(N2CCCC2)c1)n1cncn1 (stereo unspecified) : CoaBC: 1.33%; TcHisRS: 1.141%
- CCN1CC(C(=O)NCc2cccnc2-n2cccn2)CC1=O (stereo unspecified) : CoaBC: 4.7%; TcHisRS: 9.038%
- Cc1ccc(NC2CCN(C(=O)c3c(C)noc3C)CC2)nn1 : CoaBC: -5.053%; TcHisRS: -1.141%
- CNC(=O)C1CNCCN1C(=O)c1ccc(C(F)(F)F)nc1C (stereo unspecified) : CoaBC: 3.337%; TcHisRS: 3.042%
- CN(c1ccccc1)S(=O)(=O)c1cc2c(c(C(=O)O)c1)OCCO2 : CoaBC: 4.512%; TcHisRS: 10.24%
- Cn1cc(C(=O)CC2CCCN2C(=O)c2ccc3[nH]ncc3c2)cn1 (stereo unspecified) : CoaBC: 3.537%; TcHisRS: 5.422%
- CC(C(=O)Nc1ccc(N2CCCC2)nc1)n1ccnc1 (stereo unspecified) : CoaBC: 3.915%; TcHisRS: 0.7519%
- Cn1c(CCNc2nccnc2C#N)nc2cc(Cl)ccc21 : CoaBC: -3.667%; TcHisRS: 14.21%
- Cn1c(SCC(N)=O)nnc1-c1csc2c1CCCC2 : CoaBC: 2.651%; TcHisRS: 4.95%
- c1ccc(-c2cnc3n2CCNC32CCNCC2)cc1 : TcHisRS: 6.329%
- O=S(=O)(c1cccs1)N1CCCn2nnc(CN3CCCCC3)c2C1 : CoaBC: 3.68%; TcHisRS: 5.946%
- CSCCN1C(=O)CC(C)(c2ccc(Br)cc2)C1=O (stereo unspecified) : CoaBC: 1.901%; TcHisRS: 3.017%
- CC(=O)N(C)c1nc(CN2CCOC(Cn3cc(C)cn3)C2)cs1 (stereo unspecified) : CoaBC: 7.692%; TcHisRS: -1.132%
- O=C(NCC1Cn2nnc(-c3ccccc3)c2CO1)c1ccc[nH]1 (stereo unspecified) : CoaBC: 1.261%; TcHisRS: -23.97%
- O=C(CN1CCCC(Cn2cncn2)C1)NCCOc1ccccc1 (stereo unspecified) : CoaBC: 2.738%; TcHisRS: 4.151%
- Cc1cnn(CC2CCCN2c2ncnc3c2CCC3)c1 (stereo unspecified) : CoaBC: -5.366%; TcHisRS: 8.824%
- COC(=O)c1ncccc1N1CCCCC1 : CoaBC: 2.893%; TcHisRS: 3.571%
- O=C(Cc1cn2ccsc2n1)N1CCCC(n2cncn2)C1 (stereo unspecified) : CoaBC: 2.591%; TcHisRS: 3.817%
- Cc1cc(NC(=O)C(c2cccc(F)c2)N2CCOCC2)sn1 (stereo unspecified) : CoaBC: 11.98%; TcHisRS: 5%
- COCC(=O)Nc1ccccc1Sc1c(C)n[nH]c1C : CoaBC: 1.474%; TcHisRS: 2.469%
- O=C(Cc1cccc2ccccc12)N1CCC(Nc2cccnn2)CC1 : CoaBC: 42.72% and 12.89%; TcHisRS: 6.686%
- CCCc1nc(N2CCC(CCO)CC2)c2cnn(C)c2n1 : CoaBC: -0.7371%; TcHisRS: 6.173%
- CC(=O)N1CCN2C(=O)N(Cc3ccc(F)cc3)C[C@H]2C1 : CoaBC: 2.483%; TcHisRS: 8.911%
- Cn1ncnc1CCNC(=O)c1cc(Cl)c(Cl)n1C : TcHisRS: 11.69%
- CC(C)(C)c1cc(NC(=O)CN2CCCC2Cn2cncn2)on1 (stereo unspecified) : TcHisRS: 0%

Some entries from above, unchanged:

SMILES	CoaBC	TcHisRS
Cc1cc(NC(=O)C(c2cccc(F)c2)N2CCOCC2)sn1 (stereo unspecified)	11.98%	5%
CC(C)(C)c1cc(NC(=O)CN2CCCC2Cn2cncn2)on1 (stereo unspecified)	-	0%
O=C(CN1C[C@H]2CC[C@@H]1CN(Cc1ccccn1)C2)NCc1cccs1	5.535%	-14.94%
CC(C)CNC(=O)N1C[C@H]2CC[C@@]3(N=C(c4ccccc4)NC3=O)[C@H]2C1	4.56%	6.863%

The values are deposited in ChEMBL (CHEMBL3988442, “University of Dundee, Small-Polar-MMV Screening Library” (2021)).